# Data as given in the supplement of paper PMC8728848.
# The list shows a part of the results.
# B1: Epa19 (Candida glabrata) (protein)
# chain: MGSSHHHHHHSSGLVPRGSHMASSKDPTRFPIGCSPQVLKTQPGLAVKLYSYGHPVPGCSYITYQYPDFPRSGYKKERKLADITGVNGKIDIDLKPNDPCRVLTGHLPSNYNYPDTLTYTNFTMILYGYFQPKVTGYHTFNLEADDLLFMNLGAGNAFDCCKAESTLDNFGNYQSYSLWGSDYAKANITVFLVSGVYYPIRLFYVNRDNNAVIDFSFTTEFDKEKVHDFTSYFFSASDGEQCPGSV
# Key:
# Test in all cases: glycan array binding signal (z-score within array); higher = stronger binding
# Conditions in all cases: glycan notation: IUPAC condensed, linker removed
# [1] = biological target: Neu5Ac(a2-3)Gal(b1-4)GlcNAc(b1-2)Man(a1-3)[Neu5Ac(a2-6)Gal(b1-4)GlcNAc(b1-2)Man(a1-6)]Man(b1-4)GlcNAc(b1-4)GlcNAc
# Procedure, shortened: (§1)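 Columns mapping to the same glycan were averaged after glycan names were converted to IUPAC-condensed notation. The data come from 3228 arrays in the Consortium for Functional Glycomics database, limited to those with an available protein sequence. Binding is reported as a within-array Z-score averaged across arrays of one protein sequence and across linkers.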
# [2] = biological target: Neu5Ac(a2-3)Gal(b1-4)GlcNAc(b1-2)[Neu5Ac(a2-3)Gal(b1-4)GlcNAc(b1-4)]Man(a1-3)[GlcNAc(b1-4)][Neu5Ac(a2-3)Gal(b1-4)GlcNAc(b1-2)[Neu5Ac(a2-3)Gal(b1-4)GlcNAc(b1-6)]Man(a1-6)]Man(b1-4)GlcNAc(b1-4)GlcNAc
# Procedure, shortened: as §1
# [3] = biological target: Neu5Ac(a2-3)Gal(b1-4)GlcNAc(b1-2)[Neu5Ac(a2-3)Gal(b1-4)GlcNAc(b1-4)]Man(a1-3)[GlcNAc(b1-4)][Neu5Ac(a2-3)Gal(b1-4)GlcNAc(b1-4)Man(a1-6)]Man(b1-4)GlcNAc(b1-4)GlcNAc
# Procedure, shortened: as §1
# [4] = biological target: Neu5Ac(a2-3)Gal(b1-4)GlcNAc(b1-2)[Neu5Ac(a2-3)Gal(b1-4)GlcNAc(b1-6)]Man(a1-6)[Neu5Ac(a2-3)Gal(b1-4)GlcNAc(b1-2)Man(a1-3)][GlcNAc(b1-4)]Man(b1-4)GlcNAc(b1-4)GlcNAc
# Procedure, shortened: as §1
# [5] = biological target: Neu5Ac(a2-3)Gal(b1-4)GlcNAc(b1-3)Gal
# Procedure, shortened: as §1
# [6] = biological target: Neu5Ac(a2-3)Gal(b1-4)GlcNAc(b1-3)Gal(b1-3)GlcNAc
# Procedure, shortened: as §1
# [7] = biological target: Neu5Ac(a2-3)Gal(b1-4)GlcNAc(b1-3)Gal(b1-4)GlcNAc
# Procedure, shortened: as §1
# [8] = biological target: Neu5Ac(a2-3)Gal(b1-4)GlcNAc(b1-3)Gal(b1-4)GlcNAc(b1-2)Man(a1-3)[Neu5Ac(a2-3)Gal(b1-4)GlcNAc(b1-3)Gal(b1-4)GlcNAc(b1-2)Man(a1-6)]Man(b1-4)GlcNAc(b1-4)GlcNAc
# Procedure, shortened: as §1
# [9] = biological target: Neu5Ac(a2-3)Gal(b1-4)GlcNAc(b1-3)Gal(b1-4)GlcNAc(b1-3)Gal(b1-4)GlcNAc
# Procedure, shortened: as §1
# [10] = biological target: Neu5Ac(a2-3)Gal(b1-4)GlcNAc(b1-3)Gal(b1-4)GlcNAc(b1-3)Gal(b1-4)GlcNAc(b1-2)Man(a1-3)[Neu5Ac(a2-3)Gal(b1-4)GlcNAc(b1-3)Gal(b1-4)GlcNAc(b1-3)Gal(b1-4)GlcNAc(b1-2)Man(a1-6)]GalNAc
# Procedure, shortened: as §1
# [11] = biological target: Neu5Ac(a2-3)Gal(b1-4)GlcNAc(b1-3)Gal(b1-4)GlcNAc(b1-3)GalNAc
# Procedure, shortened: as §1
# [12] = biological target: Neu5Ac(a2-3)Gal(b1-4)GlcNAc(b1-3)Gal(b1-4)GlcNAc(b1-3)[Neu5Ac(a2-3)Gal(b1-4)GlcNAc(b1-3)Gal(b1-4)GlcNAc(b1-6)]GalNAc
# Procedure, shortened: as §1
# [13] = biological target: Neu5Ac(a2-3)Gal(b1-4)GlcNAc(b1-3)Gal(b1-4)GlcNAc(b1-6)[Gal(b1-3)]GalNAc
# Procedure, shortened: as §1
# [14] = biological target: Neu5Ac(a2-3)Gal(b1-4)GlcNAc(b1-3)Gal(b1-4)[Fuc(a1-3)]GlcNAc
# Procedure, shortened: as §1
# [15] = biological target: Neu5Ac(a2-3)Gal(b1-4)GlcNAc(b1-3)GalNAc
# Procedure, shortened: as §1
# [16] = biological target: Neu5Ac(a2-3)Gal(b1-4)GlcNAc(b1-3)[Neu5Ac(a2-3)Gal(b1-4)GlcNAc(b1-6)]GalNAc
# Procedure, shortened: as §1
# [17] = biological target: Neu5Ac(a2-3)Gal(b1-4)GlcNAc(b1-6)GalNAc
# Procedure, shortened: as §1
# [18] = biological target: Neu5Ac(a2-3)Gal(b1-4)GlcNAc(b1-6)[Gal(b1-3)]GalNAc
# Procedure, shortened: as §1
# [19] = biological target: Neu5Ac(a2-3)Gal(b1-4)GlcNAc(b1-6)[Neu5Ac(a2-3)Gal(b1-3)]GalNAc
# Procedure, shortened: as §1
# [20] = biological target: Neu5Ac(a2-3)Gal(b1-4)GlcNAc6S
# Procedure, shortened: as §1
# [21] = biological target: Neu5Ac(a2-3)Gal(b1-4)[Fuc(a1-3)]GlcNAc
# Procedure, shortened: as §1
# [22] = biological target: Neu5Ac(a2-3)Gal(b1-4)[Fuc(a1-3)]GlcNAc(b1-2)Man
# Procedure, shortened: as §1
# [23] = biological target: Neu5Ac(a2-3)Gal(b1-4)[Fuc(a1-3)]GlcNAc(b1-3)Gal
# Procedure, shortened: as §1
# [24] = biological target: Neu5Ac(a2-3)Gal(b1-4)[Fuc(a1-3)]GlcNAc(b1-3)Gal(b1-4)GlcNAc
# Procedure, shortened: as §1
# [25] = biological target: Neu5Ac(a2-3)Gal(b1-4)[Fuc(a1-3)]GlcNAc(b1-3)Gal(b1-4)[Fuc(a1-3)]GlcNAc(b1-3)Gal(b1-4)[Fuc(a1-3)]GlcNAc
# Procedure, shortened: as §1
# [26] = biological target: Neu5Ac(a2-3)Gal(b1-4)[Fuc(a1-3)]GlcNAc(b1-3)GalNAc
# Procedure, shortened: as §1
# [27] = biological target: Neu5Ac(a2-3)Gal(b1-4)[Fuc(a1-3)]GlcNAc(b1-6)[Gal(b1-3)]GalNAc
# Procedure, shortened: as §1
# [28] = biological target: Neu5Ac(a2-3)Gal(b1-4)[Fuc(a1-3)]GlcNAc(b1-6)[Neu5Ac(a2-3)Gal(b1-3)]GalNAc
# Procedure, shortened: as §1
# [29] = biological target: Neu5Ac(a2-3)Gal(b1-4)[Fuc(a1-3)]GlcNAc6S
# Procedure, shortened: as §1
# [30] = biological target: Neu5Ac(a2-3)Gal6S(b1-4)GlcNAc
# Procedure, shortened: as §1
# [31] = biological target: Neu5Ac(a2-3)Gal6S(b1-4)[Fuc(a1-3)]GlcNAc
# Procedure, shortened: as §1
# Neu5Ac(a2-3)GalNAc = biological target: Neu5Ac(a2-3)GalNAc
# Procedure, shortened: as §1
# [32] = biological target: Neu5Ac(a2-3)GalNAc(b1-4)GlcNAc
# Procedure, shortened: as §1
# [33] = biological target: Neu5Ac(a2-3)[GalNAc(b1-4)]Gal(b1-4)Glc
# Procedure, shortened: as §1
# [34] = biological target: Neu5Ac(a2-3)[GalNAc(b1-4)]Gal(b1-4)GlcNAc
# Procedure, shortened: as §1
# [35] = biological target: Neu5Ac(a2-3)[GalNAc(b1-4)]Gal(b1-4)GlcNAc(b1-3)GalNAc
# Procedure, shortened: as §1
# [36] = biological target: Neu5Ac(a2-3)[Neu5Ac(a2-6)]GalNAc
# Procedure, shortened: as §1
binder,measurement,setting,value
B1,glycan array binding signal (z-score),[1],0.269
same,glycan array binding signal (z-score),[2],0.102
same,glycan array binding signal (z-score),[3],-0.197
same,glycan array binding signal (z-score),[4],-1.06
same,glycan array binding signal (z-score),[5],-0.41
same,glycan array binding signal (z-score),[6],-0.403
same,glycan array binding signal (z-score),[7],0.186
same,glycan array binding signal (z-score),[8],0.171
same,glycan array binding signal (z-score),[9],0.026
same,glycan array binding signal (z-score),[10],1.5
same,glycan array binding signal (z-score),[11],0.273
same,glycan array binding signal (z-score),[12],0.493
same,glycan array binding signal (z-score),[13],-0.117
same,glycan array binding signal (z-score),[14],-0.678
same,glycan array binding signal (z-score),[15],0.601
same,glycan array binding signal (z-score),[16],0.645
same,glycan array binding signal (z-score),[17],-0.594
same,glycan array binding signal (z-score),[18],-0.019
same,glycan array binding signal (z-score),[19],-0.685
same,glycan array binding signal (z-score),[20],-0.795
same,glycan array binding signal (z-score),[21],-0.341
same,glycan array binding signal (z-score),[22],-0.549
same,glycan array binding signal (z-score),[23],0.221
same,glycan array binding signal (z-score),[24],1.79
same,glycan array binding signal (z-score),[25],-0.375
same,glycan array binding signal (z-score),[26],3.04
same,glycan array binding signal (z-score),[27],1.34
same,glycan array binding signal (z-score),[28],0.283
same,glycan array binding signal (z-score),[29],-0.258
same,glycan array binding signal (z-score),[30],-0.438
same,glycan array binding signal (z-score),[31],0.812
same,glycan array binding signal (z-score),Neu5Ac(a2-3)GalNAc,-0.326
same,glycan array binding signal (z-score),[32],-0.055
same,glycan array binding signal (z-score),[33],0.603
same,glycan array binding signal (z-score),[34],-0.517
same,glycan array binding signal (z-score),[35],-0.115
same,glycan array binding signal (z-score),[36],0.022

# Reformatted as tab-separated lines: part of the list above.
binder	measurement	setting	value
B1	glycan array binding signal (z-score)	[34]	-0.517
same	glycan array binding signal (z-score)	[35]	-0.115
